Experimental data published in publication PMC7862700.
The list shows a part of the results, in another mix than the full data. At the low end of the ranking the order means little.

Target: SPI1 (UniProt P17947)
Assay: DAPPL (digital affinity profiling via proximity ligation, sequencing)
Conditions: 10 mM Tris-HCl pH 7.5, 50 mM NaCl, 1 mM DTT, 4% glycerol, room temperature, 30 min; GST-TFs on glutathione beads, 16-mer random dsDNA library, 0.1% …; high values mean tight binding; double strand, one strand shown; scale: fold enrichment (6-mer frequency, TF over GST control)

Sequence	binding signal
TGTCCG	1.2
GTAACC	1.01
TGGTGG	0.909
CGCACC	0.877
TGGGTA	0.98
ACACGC	0.969
AGCTAT	1.15
GGCTCG	0.89
GACATT	1.13
AGCATG	0.907
ACAAAG	0.925
CTAGAT	1.2
GTCACC	0.897
TGAAGC	0.92
CTATGT	1.04
CAACTG	1.05
ACCAAG	0.883
GTGTCT	0.976
CCACGT	0.845

Shown as a markdown table: part of the list above

| Sequence | binding signal |
| --- | --- |
| TGGGTA | 0.98 |
| ACACGC | 0.969 |
| AGCTAT | 1.15 |

Continuation.

Sequence	binding signal
ACAGCA	0.951
AAGGCC	0.91
CGTTGT	0.985
GCACAA	1.05
ATATTT	1.43
AGAACT	0.924
AAGCCG	0.879
CTTGAG	0.824
CTCGAC	1.34
GTTGTA	0.974
GACCGA	0.864
GCGCAC	0.864
ATAAGG	1.05
CCGAGC	1.12
AGATTA	1.01
GCTTAC	1.12
AGTTTG	0.915
TGCAGA	0.978
GCTAGC	1.29
